Experimental data taken from paper doi:10.1101/2024.10.25.620210.

Legend:
[1] = molecular target: stP8 (cTP8-2xStrep-HA-TurboID-PAP8) (Arabidopsis thaliana) (UniProt Q9XI19); test: proximity labelling
[2] = molecular target: T1, stλP8 (cTP8-2xStrep-HA-TurboID-A10 linker-PAP8) (Arabidopsis thaliana) (UniProt Q9XI19); test: proximity labelling
T1 sequence: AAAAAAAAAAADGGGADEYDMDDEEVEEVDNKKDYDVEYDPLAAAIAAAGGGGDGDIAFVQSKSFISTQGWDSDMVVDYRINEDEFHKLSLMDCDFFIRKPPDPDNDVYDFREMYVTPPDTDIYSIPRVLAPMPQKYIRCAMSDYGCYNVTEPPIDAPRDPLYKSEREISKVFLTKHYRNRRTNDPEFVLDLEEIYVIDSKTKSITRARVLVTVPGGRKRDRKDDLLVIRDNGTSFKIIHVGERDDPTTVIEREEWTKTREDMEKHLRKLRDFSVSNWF

[3] = molecular target: T2, sP8 (cTP8-2xStrep-PAP8) (Arabidopsis thaliana) (UniProt Q9XI19); test: affinity purification with mass spectrometry
T2 sequence: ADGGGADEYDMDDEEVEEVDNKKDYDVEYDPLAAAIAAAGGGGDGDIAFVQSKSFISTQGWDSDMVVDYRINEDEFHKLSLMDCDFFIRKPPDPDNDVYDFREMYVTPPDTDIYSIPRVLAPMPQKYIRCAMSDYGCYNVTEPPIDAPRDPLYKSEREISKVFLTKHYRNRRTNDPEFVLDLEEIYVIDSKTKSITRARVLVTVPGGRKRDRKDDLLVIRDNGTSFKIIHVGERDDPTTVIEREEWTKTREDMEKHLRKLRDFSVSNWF

[4] = molecular target: stP8 (cTP8-2xStrep-HA-TurboID-PAP8) (Arabidopsis thaliana) (UniProt Q9XI19); test: affinity purification with mass spectrometry
[5] = molecular target: T1, stλP8 (cTP8-2xStrep-HA-TurboID-A10 linker-PAP8) (Arabidopsis thaliana); test: affinity purification with mass spectrometry

Measured: binding

B1: PAP2 of Arabidopsis thaliana (protein, UniProt Q9S7Q2 67-862)
chain: VEKGKYSYDVESLINKLSSLPPRGSIARCLDIFKNKLSLNDFALVFKEFAGRGDWQRSLRLFKYMQRQIWCKPNEHIYTIMISLLGREGLLDKCLEVFDEMPSQGVSRSVFSYTALINAYGRNGRYETSLELLDRMKNEKISPSILTYNTVINACARGGLDWEGLLGLFAEMRHEGIQPDIVTYNTLLSACAIRGLGDEAEMVFRTMNDGGIVPDLTTYSHLVETFGKLRRLEKVCDLLGEMASGGSLPDITSYNVLLEAYAKSGSIKEAMGVFHQMQAAGCTPNANTYSVLLNLFGQSGRYDDVRQLFLEMKSSNTDPDAATYNILIEVFGEGGYFKEVVTLFHDMVEENIEPDMETYEGIIFACGKGGLHEDARKILQYMTANDIVPSSKAYTGVIEAFGQAALYEEALVAFNTMHEVGSNPSIETFHSLLYSFARGGLVKESEAILSRLVDSGIPRNRDTFNAQIEAYKQGGKFEEAVKTYVDMEKSRCDPDERTLEAVLSVYSFARLVDECREQFEEMKASDILPSIMCYCMMLAVYGKTERWDDVNELLEEMLSNRVSNIHQVIGQMIKGDYDDDSNWQIVEYVLDKLNSEGCGLGIRFYNALLDALWWLGQKERAARVLNEATKRGLFPELFRKNKLVWSVDVHRMSEGGMYTALSVWLNDINDMLLKGDLPQLAVVVSVRGQLEKSSAARESPIAKAAFSFLQDHVSSSFSFTGWNGGRIMCQRSQLKQLLSTKEPTSEESENKNLVALANSPIFAAGTRASTSSDTNHSGNPTQRRTRTKKELAGSTA
binds: all assays above

B2: PAP3 of Arabidopsis thaliana (protein, UniProt F4JF21 41-668)
chain: GFSSDEFPVDETFLEKFGPKDKDTEDEARRRNWIERGWAPWEEILTPEADFARKSLNEGEEVPLQSPEAIEAFKMLRPSYRKKKIKEMGITEDEWYAKQFEIRGDKPPPLETSWAGPMVLRQIPPRDWPPRGWEVDRKELEFIREAHKLMAERVWLEDLDKDLRVGEDATVDKMCLERFKVFLKQYKEWVEDNKDRLEEESYKLDQDFYPGRRKRGKDYEDGMYELPFYYPGMVCEGTVTTLHLYQGAFVDIGGVHEGWVPIKGNDWFWIRHFIKVGMHVIVEITAKRDPYRFRFPLELRFVHPNIDHMIFNKFDFPPIFHRDGDTNPDEIRRDCGRPPEPRKDPGSKPEEEGLLSDHPYVDKLWQIHVAEQMILGDYEANPAKYEGKKLSELSDDEDFDEQKDIEYGEAYYKKTKLPKVILKTSVKELDLEAALTERQHHNKLMMEAKARGEGYKIDKLRRNIEMDEYDFLHWRRSLEEREALLRDISSRQALGLPLEEPGRYKPGSFFGKDQYDPTSALYQYDYWGEPKNSEISKQERMKDAHNKSIVGKGNVWYDMSYDDAIKQTIEKRKEGSTLASQEEETESEEEEEDDDDFDDFDYSILSDESSIGYSEQQPLVNGTQVLTD
binds: all assays above

B3: PAP4 of Arabidopsis thaliana (protein, UniProt Q9FMX0 42-263)
chain: GGLKVEAYYGLKTPPYPLDALEPYMSRRTLEVHWGKHHRGYVDNLNKQLGKDDRLYGYTMEELIKATYNNGNPLPEFNNAAQVYNHDFFWESMQPGGGDTPQKGVLEQIDKDFGSFTNFREKFTNAALTQFGSGWVWLVLKREERRLEVVKTSNAINPLVWDDIPIICVDVWEHSYYLDYKNDRAKYINTFLNHLVSWNAAMSRMARAEAFVNLGEPNIPIA
binds: all assays above

B4: PAP5 of Arabidopsis thaliana (protein, UniProt F4IHY7 31-527)
chain: VKCGFPLKTLHAGITSRDRSLRHCIKCKKEDGDGDVSEGSKKSEEGFEYVTVERHPYHSYMDSTSGKLEPASGARASIPGEDYWPEGTSSRVRAARAPQPAGESSSFPSYGKNPGSRRKKNRKATEENVTVETNDEVSDSEDSSEEEENDSSDGFVTYKNEFEREEEETGFELDKKLGRPHPFIDPTKKKQIEKTLTSDESWWNWRKPEKEQWSRWQRRRPDVETVFLKAMAETGQVKLYGEEPTLTETSLYRARRHLFKEERLQAERERLAKEGPMAFYSEWVKAWKRDTSREAVQKHFEETGEDENTQLIEMFSHQTDREYRIMMGTDIRIKRDPLAMRMREDQIKQIWGGDPVYPTINYIQDPNAVMDFRGPDFHEPTPNMLSYLKENGKVISREMHEALLTKEKTEQLEVPDMDDAMAQAVDIGENDDDEDDADVEKDDEKVPRNWSVLKETPELRTAKPKPKKEGRMSLDEAVDDAENLTDFLMDFEEETDP
binds: all assays above

B5: PAP6 of Arabidopsis thaliana (protein, UniProt Q9M394 39-471)
chain: ASINGSGITNGAAAETTSKPSRKGRKKKQTSTVIEKDNTETDPELNPELADYDDGIEFPYDDPPLVCCFGAVQKEFVPVVRVHDNPMHPDMYSQWKMLQWDPPEFGRAPGGPPSNVAISHVRLGGRAAFMGKVGEDDFGDELVLMMNQERVQTRAVKFDENSKTACTRVKIKFKDGKMMAETVKEPPEDSLFASELNLAVLKEARIFHFNSEVLTSPTMQSTLFTAIQWSKKFGGLIFFDLNLPLPLWRSRNETRKLIKKAWNEANIIEVSQQELEFLLDEDYYERRRNYTPQYFAEDFDQTKNRRDYYHYTPEEIKSLWHDKLKLLVVTDGTLRLHYYTPTFDGVVIGTEDVLITPFTCDRTGSGDAVVAGIMRKLTTCPEMFEDQDVMERQLRFAVAAGIIAQWTIGAVRGFPTESATQNLKEQVYVPSMW
binds: all assays above

These are yes or no findings as the source states them, for the method shown. Binding seen in cells or lysates may run through a third protein. Here binding means that the protein was enriched with, or labelled near, the bait; the list need not be complete. For some of these results: Tags and fused reporters may be left off the sequences shown.
